Among the data in article PMC7819943, “Rice protein-binding microarrays: a tool to detect cis-acting elements near promoter regions in rice” are binding signal values, retold here.

The other results are listed elsewhere or left out.

The experiment addresses T1, OsSMF1 (Oryza sativa, UniProt Q6ZLB0 1-436).
T1 sequence: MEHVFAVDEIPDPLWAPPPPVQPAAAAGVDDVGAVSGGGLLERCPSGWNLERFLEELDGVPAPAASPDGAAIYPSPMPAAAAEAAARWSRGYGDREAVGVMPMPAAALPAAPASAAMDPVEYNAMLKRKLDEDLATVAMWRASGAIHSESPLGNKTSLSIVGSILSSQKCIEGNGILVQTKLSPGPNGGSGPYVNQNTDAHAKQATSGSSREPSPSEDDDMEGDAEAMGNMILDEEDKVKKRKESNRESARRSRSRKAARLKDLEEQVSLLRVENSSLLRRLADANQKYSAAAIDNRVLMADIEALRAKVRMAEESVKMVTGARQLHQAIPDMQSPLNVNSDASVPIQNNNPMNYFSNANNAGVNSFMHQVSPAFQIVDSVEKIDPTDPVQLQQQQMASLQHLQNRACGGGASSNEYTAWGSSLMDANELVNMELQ
Description: protein-binding microarray (RPBM); PBS, 2% BSA, 51.3 ng/ul salmon testes DNA, 50 uM zinc acetate, 200 nM TF, 25 C, 1 h; high values mean tight binding. The following applies: protein: recombinant; tags: N-terminal polyhistidine and DsRed monomer fusion (pET32a); chain copies: 2; label: CyDye5-dUTP incorporated in the synthesized complementary strand; 3' TTTTT single-stranded linker to array surface; dsDNA, one strand shown. In outline: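 For the binding signal, per-feature fluorescence intensity was read in arbitrary units on an Axon 4000B scanner. Before scanning, a 2% BSA-blocked custom Agilent array made double-stranded with Cy5-dUTP was washed after 1 h at 25 °C with 200 nM protein and 50 µM zinc acetate. The proteins were Ni–NTA-purified transcription factors with N-terminal polyhistidine and DsRed fusions, expressed in E. coli BL21-CodonPlus.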
As to “GCTTGCCGGCGCTCTACGAGGAGGCGGAAAGGCTCGTGGGCGGAGTCACCTAGTGCAG”, the binding signal is 3470 fluorescence intensity (a.u.).
Regarding “TTCAATCCTAGCGCCACGTCAACATCACATATTAGGTCACCGGAGTCACCTAGTGCAG”, the binding signal is 19600 fluorescence intensity (a.u.).
As for “CAGCCTGAACCGTAAACAAATGGCACCCTAAATGACACATCGGAGTCACCTAGTGCAG”, the figure is 3510 fluorescence intensity (a.u.); as for “TTAATTTGTTTTCACGTATGGTTGTGTTGCCCGCTTGGAACGGAGTCACCTAGTGCAG”, 6280 fluorescence intensity (a.u.).
The value for “TGTGTTTTGCGGTTCTCTTGCCTCTGACTCTGAGACTGGACGGAGTCACCTAGTGCAG” was 3780 fluorescence intensity (a.u.).
Take “GAAACACCGAGCACGATGCCACCGTGCGCGTGTGCCGTGCCGGAGTCACCTAGTGCAG”: the binding signal is 3160 fluorescence intensity (a.u.).
The value for “ACACACATCCGTTGGTTGGTTTGAATCCTTGCATGTGCATCGGAGTCACCTAGTGCAG” was 22300 fluorescence intensity (a.u.).
For “TAATCAAACACTTATCCATGTGGCAAATCTATGGGCCTCCCGGAGTCACCTAGTGCAG”, the binding signal was 3390 fluorescence intensity (a.u.).
As for “TCATTCGTAAGGCCGTCAGCAATATCTTCTATAGGTTCGTCGGAGTCACCTAGTGCAG”, the figure is 3700 fluorescence intensity (a.u.); as for “GTCCACGATTAATCCACGTACATACCAGGTGATTGTGCAACGGAGTCACCTAGTGCAG”, 3950 fluorescence intensity (a.u.); as for “GTTAGCGCATGGCAGCCACGTGGTGGCACGGGGACAGCGCCGGAGTCACCTAGTGCAG”, 8490 fluorescence intensity (a.u.).
The value for “ATTGCCGTGAGCCCGTGACTACTCTTTACTCTTTCTTTTCCGGAGTCACCTAGTGCAG” was 3380 fluorescence intensity (a.u.).
As for “GGTGGCCGGGAAGGAGAGGCACGGGATCGACGATCTGGTGCGGAGTCACCTAGTGCAG”, the figure is 14700 fluorescence intensity (a.u.); as for “TGTGGGAGTATCTTCAACAACGCTATCAACAGAGCAGTGCCGGAGTCACCTAGTGCAG”, 7820 fluorescence intensity (a.u.); as for “ACTCTTAATTAATGAGTTGATGATGTTGACTAAATTAAGGCGGAGTCACCTAGTGCAG”, 3340 fluorescence intensity (a.u.).
With “TGCTTCATCGCGGCCAACGCCACCGCCGTCCACCGTCATCCGGAGTCACCTAGTGCAG”, the binding signal was 3260 fluorescence intensity (a.u.).
In the case of “TAACGAACACGTGGCCAGATACCCTGACAAAATTCACCAGCGGAGTCACCTAGTGCAG”, the binding signal was 8190 fluorescence intensity (a.u.).
The value for “TTGTTGAAATTGGACTTGGGAGCCACGAGTCCACGTGACACGGAGTCACCTAGTGCAG” was 3560 fluorescence intensity (a.u.); that for “CTGATTAATTGACCCACCGACTAAACTTGCACAGTCACCACGGAGTCACCTAGTGCAG” was 7530 fluorescence intensity (a.u.); that for “AATCCCAGTGCGTGCCTCCGCCTCCACCTCCACCTCGTCACGGAGTCACCTAGTGCAG” was 22000 fluorescence intensity (a.u.).
As for “CTATTTTGAATTACAAGCCACGCATAGAATTTGCATTTTGCGGAGTCACCTAGTGCAG”, the figure is 4350 fluorescence intensity (a.u.); as for “TGCCGTGCCGGCCGCGCGCTCGCCACATAAGCACATACGGCGGAGTCACCTAGTGCAG”, 4840 fluorescence intensity (a.u.); as for “TTAGAAACTTTCTCTAGATCACCCTTCTATTAGTGAGACACGGAGTCACCTAGTGCAG”, 3200 fluorescence intensity (a.u.).
The value for “ACTTGAGGATGTGAAGATGATTGGTTAGGTACAGTGTTTGCGGAGTCACCTAGTGCAG” was 24800 fluorescence intensity (a.u.); that for “GATTTGCTTACATGAATAAGGTTGATTTGCATCGGCAAGACGGAGTCACCTAGTGCAG” was 4000 fluorescence intensity (a.u.); that for “ACTATATCATTTGCACTGTGCTTGCGTTGTACGTATGCCACGGAGTCACCTAGTGCAG” was 3510 fluorescence intensity (a.u.).
Regarding “TGGCCTCCTCCGCCGTCCACGTGAGGCAGGCAGGGCTAACCGGAGTCACCTAGTGCAG”, the binding signal was 4120 fluorescence intensity (a.u.).
As for “TACTTGGAACGATTTGCTACCAGCGAATCGCGTGGCAATCCGGAGTCACCTAGTGCAG”, the figure is 3480 fluorescence intensity (a.u.).
As for “ACCACCACCACCACCGTCACCCAACTATTCTATTCTGAATCGGAGTCACCTAGTGCAG”, the figure is 3330 fluorescence intensity (a.u.); as for “AAAAGAACACTGCCCAAAGGCCCAGATAACTAGACATCCCCGGAGTCACCTAGTGCAG”, 5010 fluorescence intensity (a.u.); as for “CGATCGATCGATTGTGAGCACCGAACTCCCTTAATTAGGACGGAGTCACCTAGTGCAG”, 3390 fluorescence intensity (a.u.).
As to “AGCACAGACACAAACACAACCCTCTCTTACGTCAGAGCACCGGAGTCACCTAGTGCAG”, the binding signal is 9570 fluorescence intensity (a.u.).
For “ACGGGAAGGGGAAAAGAAGGAATGAGAAGGGGTAATCTAGCGGAGTCACCTAGTGCAG”, the binding signal was 21400 fluorescence intensity (a.u.).
As for “TGTAGAGGTTGGTGGGTGGGTCGATTGGCTTAGCGAGAGGCGGAGTCACCTAGTGCAG”, the figure is 3510 fluorescence intensity (a.u.).
With “CCACGAACGAGTTGTTGCGCCACGTCGATGTGCGATTAGACGGAGTCACCTAGTGCAG”, the binding signal is 11500 fluorescence intensity (a.u.).
Regarding “TCCCCACCCTCCTCCGCAAGCCACGCCTCTCCCCAAAGTTCGGAGTCACCTAGTGCAG”, the binding signal is 65500 fluorescence intensity (a.u.).
For the sequence “CCCCTCCCCATCGTCAGCATCTTTCTTTCTCTTCCCATCCCGGAGTCACCTAGTGCAG”, the binding signal is 6610 fluorescence intensity (a.u.).
With “GTCGCCACATGACACCATGCGAGACTGTCCACGTCATCATCGGAGTCACCTAGTGCAG”, the binding signal is 24200 fluorescence intensity (a.u.).
As for “TAATAACTTATACTGATATTGATTACTCCCTCCATCCCTACGGAGTCACCTAGTGCAG”, the figure is 3370 fluorescence intensity (a.u.); as for “CACGTCCTCCTCCTCCCGTCACGCTCGCGCAGCTGCTGCTCGGAGTCACCTAGTGCAG”, 3360 fluorescence intensity (a.u.); as for “TATGTACATGTGGCATAGTATGTCATATATATTGACTATGCGGAGTCACCTAGTGCAG”, 4460 fluorescence intensity (a.u.).
As for “GAGAGCCCAACGAACGTGACGCGACTTGTGAGGCCCAAACCGGAGTCACCTAGTGCAG”, the figure is 6460 fluorescence intensity (a.u.).
